Assay results: article doi:10.1101/177980
Where two headings read alike, the source gives them in different places. These are yes or no findings as the source states them, for the method shown. Binding seen in cells or lysates may run through a third protein. Some binding calls cover weakened binding; strength is not graded here.

The chains behind the UniProt entries cited, without tags or fusion partners. Where a name states a change or a piece, a line headed by the entry shows the natural chain unless it says otherwise. A line that says so, or that is headed by a name, gives the form on record, which may keep a tag or linker.
UniProt O43809: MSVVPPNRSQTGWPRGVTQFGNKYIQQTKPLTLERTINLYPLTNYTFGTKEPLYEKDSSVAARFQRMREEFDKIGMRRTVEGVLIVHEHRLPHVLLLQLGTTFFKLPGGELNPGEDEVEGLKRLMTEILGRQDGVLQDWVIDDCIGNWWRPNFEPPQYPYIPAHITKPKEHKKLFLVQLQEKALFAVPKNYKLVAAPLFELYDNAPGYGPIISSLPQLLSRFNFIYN
UniProt Q16630: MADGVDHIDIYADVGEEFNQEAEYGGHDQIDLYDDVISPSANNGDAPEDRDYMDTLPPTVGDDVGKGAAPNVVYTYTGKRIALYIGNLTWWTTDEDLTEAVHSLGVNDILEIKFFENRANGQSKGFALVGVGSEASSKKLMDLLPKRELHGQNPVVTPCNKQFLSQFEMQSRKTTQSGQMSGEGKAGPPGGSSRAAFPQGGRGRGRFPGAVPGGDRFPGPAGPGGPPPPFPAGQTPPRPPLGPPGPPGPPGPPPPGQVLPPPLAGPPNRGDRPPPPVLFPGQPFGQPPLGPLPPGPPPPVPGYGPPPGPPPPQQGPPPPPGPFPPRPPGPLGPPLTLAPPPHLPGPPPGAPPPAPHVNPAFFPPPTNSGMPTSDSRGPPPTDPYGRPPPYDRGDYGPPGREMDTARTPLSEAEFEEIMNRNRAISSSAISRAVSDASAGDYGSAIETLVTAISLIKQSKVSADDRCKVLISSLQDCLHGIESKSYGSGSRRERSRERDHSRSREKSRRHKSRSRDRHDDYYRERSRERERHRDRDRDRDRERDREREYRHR
CFIm68 RS1 S-to-A (Q16630, form named): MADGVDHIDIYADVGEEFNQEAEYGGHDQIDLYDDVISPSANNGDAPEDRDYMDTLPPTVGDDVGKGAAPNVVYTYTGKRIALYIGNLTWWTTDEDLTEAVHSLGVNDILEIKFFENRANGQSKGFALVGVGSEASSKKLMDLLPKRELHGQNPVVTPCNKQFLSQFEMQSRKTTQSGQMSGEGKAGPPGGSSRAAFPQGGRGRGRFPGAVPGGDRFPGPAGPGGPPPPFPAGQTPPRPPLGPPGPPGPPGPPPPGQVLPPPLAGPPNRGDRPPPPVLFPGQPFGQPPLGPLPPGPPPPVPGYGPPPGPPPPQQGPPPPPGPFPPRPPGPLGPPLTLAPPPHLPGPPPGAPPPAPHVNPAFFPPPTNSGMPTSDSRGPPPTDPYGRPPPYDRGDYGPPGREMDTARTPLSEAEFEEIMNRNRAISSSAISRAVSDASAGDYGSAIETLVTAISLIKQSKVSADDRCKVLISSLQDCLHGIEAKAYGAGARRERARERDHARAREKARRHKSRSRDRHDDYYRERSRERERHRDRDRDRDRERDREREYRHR

Legend:
[1] = target: CFIm25 (cleavage factor Im 25 kDa subunit), endogenous (human (endogenous in HEK293 Flp-In T-REx)) (UniProt O43809); experiment: co-IP
[2] = target: CFIm25 (cleavage factor Im 25 kDa subunit), endogenous (human (endogenous in HEK293 Flp-In T-REx)) (UniProt O43809); experiment: co-IP; remark: listed apart in the source

Molecule	binding [1]	binding [2]
CFIm68, endogenous in HEK293 Flp-In cells (from UniProt Q16630 1-551)	binds	–
CFIm59 (cleavage factor Im 59 kDa subunit), endogenous (protein, UniProt Q8N684 1-471, phosphorylated (pIMAGO signal)) MSEGVDLIDIYADEEFNQDPEFNNTDQIDLYDDVLTATSQPSDDRSSSTEPPPPVRQEPSPKPNNKTPAILYTYSGLRNRRAAVYVGSFSWWTTDQQLIQVIRSIGVYDVVELKFAENRANGQSKGYAEVVVASENSVHKLLELLPGKVLNGEKVDVRPATRQNLSQFEAQARKRECVRVPRGGIPPRAHSRDSSDSADGRATPSENLVPSSARVDKPPSVLPYFNRPPSALPLMGLPPPPIPPPPPLSSSFGVPPPPPGIHYQHLMPPPPRLPPHLAVPPPGAIPPALHLNPAFFPPPNATVGPPPDTYMKASAPYNHHGSRDSGPPPSTVSEAEFEDIMKRNRAISSSAISKAVSGASAGDYSDAIETLLTAIAVIKQSRVANDERCRVLISSLKDCLHGIEAKSYSVGASGSSSRKRHRSRERSPSRSRESSRRHRDLLHNEDRHDDYFQERNREHERHRDRERDRHH	–	binds

Further lines, results first:

binding [1]	binding [2]	Molecule
binds	–	CFIm68 RS1 S-to-A (from UniProt Q16630 1-551)
binds	–	CFIm68 S511A S513A S525A (RS2 S-to-A) (from UniProt Q16630 1-551)
